Reference: PubChem BioAssay AID1347076 (National Center for Advancing Translational Sciences (NCATS), 2019)
Among all 400,000 compounds or so, about 13,000 (3.2%) were called active. The shares of active, inactive and inconclusive entries below differ from those in the screen. Calls follow the shape of the dose curve; as a rule, active = well fitted cell-killing curve with a large enough effect; inconclusive = small, poorly fitted or top-dose-only effect, or effect the other way; inactive = flat fitted curve, though single readings scatter. A potency beside an inconclusive call is a rough fit, not a confirmed value.

assay: qHTS assay for MDR1-selective chemotherapeutics: Primary screen using the drug-selected MDR subline cells KB-V1; conditions: KB-V1 MDR cells viability, CellTiter-Glo, 72 h; activity change, negative = cytotoxicity: at 46.1 µM (top of the series); also: nearly all actives have a fitted effect of over 60% in size
In short: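 KB-V1 MDR subline cells in DMEM (phenol-red free, 10% FBS) exposed to compounds in qHTS concentration series for 72 h at 37 degrees C. Viability read by CellTiter-Glo luminescence; concentration-effect curves fitted after normalization and correction.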
% is scaled to controls: 0 for no effect and ±100 for the full control effect; potency is read from the fitted curve at half-maximal effect.

| Structure (SMILES) | activity change, negative = cytotoxicity | Potency |
| --- | --- | --- |
| CCOC(=O)CSc1nc(C(C)C)nc2ccccc12 | inactive: 21.8% |  |
| CCOc1ccc(/C=N/NC(=O)Cc2ccccc2)cc1CN1CC2CC(C1)c1cccc(=O)n1C2 (stereo not given) | inactive: -21.1% |  |
| C[C@]12CCC3C(CC[C@H]4CC(O)CC[C@]34C)C1CC/C2=N/NC(=O)c1ccncc1 (stereo not given in full) | inactive: -15.7% |  |
| N#Cc1cccc(S(=O)(=O)NCCOc2ccccc2F)c1 | inactive: 17.4% |  |
| Cc1ccccc1NC(=S)NC1CCN(Cc2ccccc2)CC1 |  | inconclusive: 20.6 µM [cytotoxic, partial curve, poor fit] |
| COc1ccc(C2CN=NC23CCCc2ccccc2C3=O)cc1 (stereo not given) |  | inconclusive: 18.4 µM [cytotoxic, single point] |
| Cc1cc(NC(=O)C2CCCCC2)ccc1NC(=O)c1ccccc1Cl | inactive: 21.9% |  |
| O=C(COc1ccccc1Cl)N1CCN(c2ncccn2)CC1 |  | inconclusive: 29.1 µM [cytotoxic, single point] |
| O=C(CCC(=O)N1CCCC1)Nc1ccc([N+](=O)[O-])cc1 |  | inconclusive: 20.6 µM [rising, single point] |
| CCOC(=O)c1sc(NC(=O)CN2C(=O)NC3(CCCCCCC3)C2=O)c(C(=O)OCC)c1C |  | inconclusive: 16.4 µM [cytotoxic, single point] |
| CCN(CC)S(=O)(=O)c1cc(NC(=O)Cc2n[nH]c(=O)c3ccccc23)ccc1C | inactive: -20.7% |  |
| Nc1c(N=Nc2cccc(Cl)c2)c(=O)[nH]n1-c1ccccc1 | inactive: 17.6% |  |
| COc1ccccc1-c1cc(=O)c2c(O)ccc([N+](=O)[O-])c2o1 |  | active: 4.61 µM |
| CCOC(=O)N1CCN(S(=O)(=O)c2ccc(C)cc2)CC1 | inactive: -2.75% |  |
| CCCC(=O)Nc1sc(C)c(-c2ccc(C(C)CC)cc2)c1C#N (stereo not given) | inactive: 0% |  |
| COc1ccc(CNC(=O)c2ccc(-c3cccnc3)c3ccoc23)cc1OC |  | active: 18.4 µM |
| Oc1ccccc1C1=Nc2ccccc2N=C(c2cccs2)C1 |  | active: 23.1 µM |
| O=C(N/N=C1\CCCCc2ccccc21)c1ccccn1 |  | inconclusive: 5.8 µM [cytotoxic, partial curve, poor fit] |
| CSc1cccc(NC(=O)C2CCCN(S(=O)(=O)c3cccs3)C2)c1 (stereo not given) |  | inconclusive: 29.1 µM [cytotoxic, single point] |
| O=C(CNc1ccc(Br)cc1)Nc1ccc(S(=O)(=O)N2CCCC2)cc1 |  | inconclusive: 25.9 µM [cytotoxic, single point] |
| CCN1C(=O)/C(=C/N2CCc3ccccc3C2)SC1=S |  | inconclusive: 23.1 µM [cytotoxic, partial curve, poor fit] |
| CCOC(=O)C(=Cc1ccccc1OC)C(=O)OCC |  | inconclusive: 29.1 µM [cytotoxic, single point] |
| COc1ccc(C)cc1NC(=O)c1cc(C2CC2)nc2c1c(C)nn2C1CCS(=O)(=O)C1 (stereo not given) |  | active: 4.61 µM |
| CCCOC(=O)CSc1nnc(-c2ccccc2)o1 | inactive: 4.11% |  |

| Structure (SMILES) | activity change, negative = cytotoxicity | Potency |
| --- | --- | --- |
| O=C(OCc1nc2ccc(Cl)cc2n1CCO)c1ccccc1C(=O)c1ccccc1 |  | active: 16.4 µM |
| O=C(Nc1ccc(N2CCN(C(=O)c3ccccc3)CC2)cc1)c1cccs1 |  | inconclusive: 8.2 µM [cytotoxic, partial curve] |
| Clc1cccc(Cl)c1OCCCCN1CCCCC1 |  | inconclusive: 2.91 µM [rising, partial curve, poor fit] |
| COc1ccc(NC(=O)COC(=O)C(NC(=O)c2ccc(C)cc2)C(C)C)cn1 (stereo not given) |  | active: 14.6 µM |
| COc1ccccc1NC(=O)C1CCCN(S(=O)(=O)c2c(C)noc2C)C1 (stereo not given) |  | inconclusive: 18.4 µM [cytotoxic, partial curve, poor fit] |
| CCOC(=O)COc1ccc(C)cc1C(=O)c1ccn2nc(-c3ccc(Cl)cc3)cc2n1 | inactive: -4.56% |  |
| COC(=O)C1=CN(Cc2ccc(OC)c(OC)c2)C=C(C(=O)OC)C1c1cccc(F)c1 | inactive: 9.94% |  |
| CN(C)c1cccc(CNC(=O)c2ccc3nc([C@@H]4O[C@H](CO)[C@H](O)[C@H](O)[C@H]4O)[nH]c3c2)c1 | inactive: 3.02% |  |
| O=C(NCCSCc1ccccc1)c1ccc(Cl)c(S(=O)(=O)N2CCOCC2)c1 |  | inconclusive: 29.1 µM [cytotoxic, single point] |
| CC(C)c1ccc(CNc2nc(-c3ccco3)nn2S(=O)(=O)c2ccc(F)cc2)cc1 | inactive: -4.56% |  |
| COc1ccc(CCCNC(=O)C2(C)Cc3c(-c4ccc(C(N)=O)cc4)ccnc3O2)cc1 (stereo not given) | inactive: 5.12% |  |
| CCN1CC(CN(C)Cc2cn(-c3ccc(C)cc3)nc2-c2ccc(F)cc2)CC1=O (stereo not given) |  | inconclusive: 14.6 µM [cytotoxic, partial curve, poor fit] |
| CC(C)(C)c1cc(C(=O)NCc2cc(F)cc3c2OCOC3)n(Cc2ccccc2)n1 |  | inconclusive: 14.6 µM [cytotoxic, partial curve, poor fit] |
| O=C(COC(=O)c1ccc2ccccc2n1)NCc1ccccc1 |  | inconclusive: 29.1 µM [rising, single point] |
| Cc1cccc(NC(=O)N2CCC(N3CCN(Cc4ccccc4)C(=O)C3=O)CC2)c1C |  | inconclusive: 25.9 µM [rising, single point] |
| CCN(CC)C(=O)CN(c1cc2c(cc1OC)oc1ccccc12)S(=O)(=O)c1ccccc1 |  | inconclusive: 23.1 µM [cytotoxic, single point] |
| COc1ccc(C(O)c2nccc3cc(OC)c(OC)cc23)cc1OC (stereo not given) |  | active: 8.2 µM |
| Cc1nc(-c2c(C(F)(F)F)noc2-c2ccc(O)cc2O)cs1 | inactive: -12.6% |  |
| CC(NC(=O)Nc1ccc(F)cc1)C(c1cccs1)N1CCCC1 (stereo not given) |  | inconclusive: 20.6 µM [cytotoxic, single point] |
| Cc1ccccc1-c1nc(C(=O)NCC2CCCO2)cc2c1[nH]c1ccccc12 (stereo not given) |  | inconclusive: 18.4 µM [cytotoxic, single point] |
| Cc1sc2nc3n(c(=O)c2c1C)NC(=O)CC3 |  | inconclusive: 18.4 µM [cytotoxic, partial curve] |
| Cc1ccc(S(=O)(=O)NNc2c3ccccc3nc3ccc(Cl)cc23)cc1 |  | inconclusive: 23.1 µM [cytotoxic, single point] |
| CCCN(C(=O)c1ccc(OCC(C)C)cc1)c1c(N)n(Cc2ccccc2)c(=O)[nH]c1=O |  | inconclusive: 29.1 µM [rising, partial curve, poor fit] |
| O=C(COc1ccccc1-c1ccccc1)N/N=C/c1ccc2ccccc2c1 |  | inconclusive: 0.651 µM [cytotoxic, full curve, poor fit] |

Fetched by compound from above, 2 records:

| Structure (SMILES) | activity change, negative = cytotoxicity | Potency |
| --- | --- | --- |
| Cc1cccc(NC(=O)N2CCC(N3CCN(Cc4ccccc4)C(=O)C3=O)CC2)c1C |  | inconclusive: 25.9 µM [rising, single point] |
| CCOC(=O)c1sc(NC(=O)CN2C(=O)NC3(CCCCCCC3)C2=O)c(C(=O)OCC)c1C |  | inconclusive: 16.4 µM [cytotoxic, single point] |

Next part

| Structure (SMILES) | activity change, negative = cytotoxicity | Potency |
| --- | --- | --- |
| CCOC(=O)c1c(C)[nH]c(C(=O)Cn2c(=O)c3c(ncn3CC)n(Cc3ccccc3)c2=O)c1C |  | inconclusive: 14.6 µM [cytotoxic, partial curve, poor fit] |
| CCC(C)Oc1nc2c(c(=O)n(C)c(=O)n2C)n1C (stereo not given) |  | inconclusive: 20.6 µM [cytotoxic, single point] |
| CCOc1ccccc1C(=O)NC1CCNCC1 |  | inconclusive: 25.9 µM [cytotoxic, single point] |
| CC1CCCC(NC(=O)COC(=O)CCC2CCCC2)C1C (stereo not given) |  | inconclusive: 8.2 µM [rising, partial curve, poor fit] |
| O=C(C1CCC1)N1CCN(c2ccnc3cc(Cl)ccc23)CC1 |  | inconclusive: 2.59 µM [cytotoxic, partial curve, poor fit] |
| Cc1ccc(C)c(-n2c(SCC(=O)Nc3nnc(C)s3)nnc2-c2ccoc2C)c1 |  | inconclusive: 32.6 µM [cytotoxic, single point] |
| CC(C(=O)Nc1cc([N+](=O)[O-])ccc1Cl)N1CCN(c2ccccc2O)CC1 (stereo not given) |  | active: 10.3 µM |
| CCOC(=O)C1=C(CN2CCc3ccccc32)NC(=O)NC1c1ccc(Cl)cc1 (stereo not given) |  | inconclusive: 7.31 µM [cytotoxic, partial curve] |
| O=c1c2c(nc3cc(-c4ccccc4)[nH]n13)CCC2 | inactive: 24.1% |  |
| CN1CCN(c2ccc(NC(=O)COc3ccc4ccccc4c3)cc2)CC1 |  | inconclusive: 16.4 µM [cytotoxic, single point] |
| Cc1ccc(N(CC(=O)NC(C)(C)C)C(=O)CNC(=O)c2cccs2)cc1C |  | inconclusive: 23.1 µM [cytotoxic, single point] |
| S=C(NCc1cccnc1)Nc1ccc(Cl)cc1Cl |  | inconclusive: 18.4 µM [cytotoxic, single point] |
| O=C(c1ccc(F)cc1)N1CCN(S(=O)(=O)c2ccc3c(c2)OCCO3)CC1 |  | inconclusive: 10.3 µM [cytotoxic, single point] |
| CCCCN(CCCC)C(=O)C1(P(=O)(c2ccccc2)c2ccccc2)CCC1 |  | inconclusive: 1.46 µM [cytotoxic, full curve] |
| COc1cccc(C(=O)NC(=S)Nc2nnn(C)n2)c1 |  | inconclusive: 29.1 µM [rising, single point] |
| CCCC(C)NC(=S)NC(=O)c1cc(S(=O)(=O)N2CCOCC2)ccc1C (stereo not given) | inactive: -6.55% |  |
| CCCCC[C@H](C)N1C[C@H](COCc2ccccc2)Oc2cc(N3CCC[C@@H]3COC)ccc2S1(=O)=O |  | inconclusive: 9.2 µM [cytotoxic, partial curve] |
| O=C(Cc1ccccc1F)Nc1ccc(S(=O)(=O)N2CCCC2)cc1 |  | inconclusive: 23.1 µM [cytotoxic, single point] |
| Cc1ccc(C(=O)C2Oc3ccccc3C3CC(c4ccc(C)cc4)=NN23)cc1 (stereo not given) |  | active: 20.6 µM |
| C/C(=N\NC(=O)C1CC1)c1ccccc1Br | inactive: 8.82% |  |
| CCCS(=O)(=O)c1c(S(=O)(=O)CCC)c2ccc(C(C)=O)cn2c1C(=O)OC |  | inconclusive: 32.6 µM [cytotoxic, partial curve, poor fit] |
| Cc1c(Cl)cccc1NC(=O)Cn1c(=O)n(Cc2nc(-c3ccccc3)no2)c(=O)c2cc3c(cc21)OCO3 | inactive: -2.04% |  |
